Measured values: the supplement of paper PMC10849652
The list shows a part of the results.

The chains behind the UniProt entries cited, without tags or fusion partners. Where a name states a change or a piece, a line headed by the entry shows the natural chain unless it says otherwise.
UniProt Q8TBR7: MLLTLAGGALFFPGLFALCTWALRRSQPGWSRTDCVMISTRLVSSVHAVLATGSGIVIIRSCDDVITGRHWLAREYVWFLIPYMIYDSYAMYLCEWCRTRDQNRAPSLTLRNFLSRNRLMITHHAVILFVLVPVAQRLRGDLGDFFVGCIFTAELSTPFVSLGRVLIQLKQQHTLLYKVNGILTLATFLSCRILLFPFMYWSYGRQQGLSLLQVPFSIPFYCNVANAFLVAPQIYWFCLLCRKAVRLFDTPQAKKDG
UniProt O43493: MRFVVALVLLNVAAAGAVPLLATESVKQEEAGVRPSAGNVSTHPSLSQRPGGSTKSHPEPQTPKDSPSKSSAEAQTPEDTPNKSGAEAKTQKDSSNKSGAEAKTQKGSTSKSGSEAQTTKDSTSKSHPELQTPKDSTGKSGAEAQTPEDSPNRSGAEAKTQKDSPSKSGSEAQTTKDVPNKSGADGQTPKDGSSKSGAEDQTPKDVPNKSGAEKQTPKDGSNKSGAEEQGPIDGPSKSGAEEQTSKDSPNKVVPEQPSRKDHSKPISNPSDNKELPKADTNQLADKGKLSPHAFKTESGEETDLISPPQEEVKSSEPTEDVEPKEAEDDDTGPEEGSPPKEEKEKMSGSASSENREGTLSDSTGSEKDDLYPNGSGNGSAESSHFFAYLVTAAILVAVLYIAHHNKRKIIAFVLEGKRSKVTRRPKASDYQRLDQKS
UniProt Q9NPL8: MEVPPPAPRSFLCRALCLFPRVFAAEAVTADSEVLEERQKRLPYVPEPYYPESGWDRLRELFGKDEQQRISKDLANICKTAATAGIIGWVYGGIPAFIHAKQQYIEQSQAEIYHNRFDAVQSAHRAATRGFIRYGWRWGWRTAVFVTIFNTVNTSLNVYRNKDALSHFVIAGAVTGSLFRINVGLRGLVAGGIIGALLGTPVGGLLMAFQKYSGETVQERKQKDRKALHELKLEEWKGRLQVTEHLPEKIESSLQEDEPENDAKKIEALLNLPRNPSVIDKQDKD
UniProt P10646, whole entry, looked up: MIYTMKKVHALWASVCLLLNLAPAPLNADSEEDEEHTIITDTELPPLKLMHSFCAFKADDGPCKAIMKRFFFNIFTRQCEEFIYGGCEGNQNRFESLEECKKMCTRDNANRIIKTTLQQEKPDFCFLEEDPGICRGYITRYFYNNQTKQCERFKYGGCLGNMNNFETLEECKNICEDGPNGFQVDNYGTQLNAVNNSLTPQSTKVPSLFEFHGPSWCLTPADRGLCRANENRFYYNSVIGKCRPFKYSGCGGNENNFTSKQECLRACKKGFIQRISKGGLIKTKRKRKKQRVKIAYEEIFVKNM
UniProt Q9P016: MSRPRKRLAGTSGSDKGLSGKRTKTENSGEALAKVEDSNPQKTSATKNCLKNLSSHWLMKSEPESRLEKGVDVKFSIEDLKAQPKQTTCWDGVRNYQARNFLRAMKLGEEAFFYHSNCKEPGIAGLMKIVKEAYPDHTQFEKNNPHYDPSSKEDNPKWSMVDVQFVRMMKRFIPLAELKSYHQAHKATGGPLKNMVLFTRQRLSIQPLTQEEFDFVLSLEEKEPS
UniProt P07996: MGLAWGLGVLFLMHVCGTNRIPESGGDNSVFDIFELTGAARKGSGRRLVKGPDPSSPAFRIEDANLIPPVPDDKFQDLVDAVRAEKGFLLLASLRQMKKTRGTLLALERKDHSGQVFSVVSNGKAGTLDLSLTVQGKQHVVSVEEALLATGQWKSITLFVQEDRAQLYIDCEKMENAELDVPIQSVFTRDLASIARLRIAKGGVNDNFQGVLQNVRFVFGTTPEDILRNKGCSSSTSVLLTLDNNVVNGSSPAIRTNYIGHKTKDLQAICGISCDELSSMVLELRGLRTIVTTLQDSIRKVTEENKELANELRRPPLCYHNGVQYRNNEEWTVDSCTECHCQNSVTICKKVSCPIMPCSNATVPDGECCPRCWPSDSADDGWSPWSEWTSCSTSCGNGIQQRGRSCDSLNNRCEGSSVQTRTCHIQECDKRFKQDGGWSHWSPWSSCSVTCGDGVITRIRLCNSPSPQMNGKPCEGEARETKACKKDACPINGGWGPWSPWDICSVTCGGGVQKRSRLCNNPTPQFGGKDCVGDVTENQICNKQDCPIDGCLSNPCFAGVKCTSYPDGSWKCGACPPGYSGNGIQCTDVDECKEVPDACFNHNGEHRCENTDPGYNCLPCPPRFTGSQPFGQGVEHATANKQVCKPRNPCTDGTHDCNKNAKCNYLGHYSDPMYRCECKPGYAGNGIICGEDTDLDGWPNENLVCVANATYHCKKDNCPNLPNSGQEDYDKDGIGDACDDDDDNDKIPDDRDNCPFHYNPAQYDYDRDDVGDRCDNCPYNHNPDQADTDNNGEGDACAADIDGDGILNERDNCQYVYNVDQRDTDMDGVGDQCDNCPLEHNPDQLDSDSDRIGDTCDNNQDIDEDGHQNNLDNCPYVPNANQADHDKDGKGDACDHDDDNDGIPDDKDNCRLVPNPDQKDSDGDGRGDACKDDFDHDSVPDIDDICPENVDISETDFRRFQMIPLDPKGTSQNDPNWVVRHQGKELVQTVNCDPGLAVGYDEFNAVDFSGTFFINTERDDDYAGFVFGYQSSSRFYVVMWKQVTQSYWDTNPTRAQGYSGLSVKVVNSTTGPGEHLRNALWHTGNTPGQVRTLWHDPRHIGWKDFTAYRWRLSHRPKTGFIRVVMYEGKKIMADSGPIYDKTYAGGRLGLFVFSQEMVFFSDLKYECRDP
UniProt B5MCY1: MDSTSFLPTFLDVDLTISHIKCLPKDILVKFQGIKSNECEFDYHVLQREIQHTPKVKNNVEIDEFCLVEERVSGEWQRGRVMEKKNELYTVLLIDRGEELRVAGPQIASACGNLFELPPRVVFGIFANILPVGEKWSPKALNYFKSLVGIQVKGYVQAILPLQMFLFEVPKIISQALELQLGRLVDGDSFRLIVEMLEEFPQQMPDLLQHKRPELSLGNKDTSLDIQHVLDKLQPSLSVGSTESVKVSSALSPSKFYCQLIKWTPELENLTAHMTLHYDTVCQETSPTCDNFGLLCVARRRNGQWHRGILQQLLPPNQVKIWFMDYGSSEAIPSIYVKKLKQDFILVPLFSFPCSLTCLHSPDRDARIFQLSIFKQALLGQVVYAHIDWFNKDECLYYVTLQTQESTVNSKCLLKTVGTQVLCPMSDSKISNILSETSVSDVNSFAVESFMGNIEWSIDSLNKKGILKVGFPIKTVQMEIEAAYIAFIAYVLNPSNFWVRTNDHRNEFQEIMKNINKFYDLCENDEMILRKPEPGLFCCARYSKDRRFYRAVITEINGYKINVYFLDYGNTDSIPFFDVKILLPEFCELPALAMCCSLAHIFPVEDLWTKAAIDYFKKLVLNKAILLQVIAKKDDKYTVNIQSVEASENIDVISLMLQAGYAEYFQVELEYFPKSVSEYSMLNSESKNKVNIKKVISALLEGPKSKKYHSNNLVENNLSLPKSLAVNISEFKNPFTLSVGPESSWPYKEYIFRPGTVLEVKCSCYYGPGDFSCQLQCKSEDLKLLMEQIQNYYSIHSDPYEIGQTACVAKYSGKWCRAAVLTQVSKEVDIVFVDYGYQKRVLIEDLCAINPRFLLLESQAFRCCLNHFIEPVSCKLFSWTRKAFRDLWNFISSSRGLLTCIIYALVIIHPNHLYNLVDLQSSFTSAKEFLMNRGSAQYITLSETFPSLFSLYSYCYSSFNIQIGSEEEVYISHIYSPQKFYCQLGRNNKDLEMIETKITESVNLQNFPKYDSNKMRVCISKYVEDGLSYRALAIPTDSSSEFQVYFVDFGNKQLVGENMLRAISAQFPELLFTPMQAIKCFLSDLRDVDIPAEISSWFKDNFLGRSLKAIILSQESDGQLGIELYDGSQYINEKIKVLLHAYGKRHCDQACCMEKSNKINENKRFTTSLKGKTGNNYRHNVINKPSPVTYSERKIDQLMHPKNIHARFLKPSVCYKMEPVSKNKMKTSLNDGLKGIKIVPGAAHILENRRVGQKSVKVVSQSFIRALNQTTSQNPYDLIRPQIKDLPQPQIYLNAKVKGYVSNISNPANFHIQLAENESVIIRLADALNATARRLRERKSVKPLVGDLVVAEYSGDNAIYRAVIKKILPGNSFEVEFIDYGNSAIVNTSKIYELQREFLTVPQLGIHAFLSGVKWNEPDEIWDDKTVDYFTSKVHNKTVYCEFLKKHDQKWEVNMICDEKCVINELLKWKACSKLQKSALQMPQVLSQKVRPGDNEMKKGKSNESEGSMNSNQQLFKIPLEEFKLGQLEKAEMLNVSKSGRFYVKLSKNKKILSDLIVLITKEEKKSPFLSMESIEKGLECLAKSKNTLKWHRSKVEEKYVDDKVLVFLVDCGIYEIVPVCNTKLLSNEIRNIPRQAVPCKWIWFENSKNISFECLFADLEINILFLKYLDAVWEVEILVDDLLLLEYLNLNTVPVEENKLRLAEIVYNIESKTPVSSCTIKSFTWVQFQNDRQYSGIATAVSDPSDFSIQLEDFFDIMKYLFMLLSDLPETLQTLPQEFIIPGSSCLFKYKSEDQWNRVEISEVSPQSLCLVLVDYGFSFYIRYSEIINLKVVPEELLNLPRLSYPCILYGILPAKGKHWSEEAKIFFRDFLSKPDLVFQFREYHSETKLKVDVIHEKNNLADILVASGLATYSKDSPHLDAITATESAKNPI
UniProt Q9Y5J6: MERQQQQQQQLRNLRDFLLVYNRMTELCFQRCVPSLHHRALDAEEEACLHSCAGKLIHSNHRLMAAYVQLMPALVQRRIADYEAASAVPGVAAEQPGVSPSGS
UniProt P01137, whole entry, looked up: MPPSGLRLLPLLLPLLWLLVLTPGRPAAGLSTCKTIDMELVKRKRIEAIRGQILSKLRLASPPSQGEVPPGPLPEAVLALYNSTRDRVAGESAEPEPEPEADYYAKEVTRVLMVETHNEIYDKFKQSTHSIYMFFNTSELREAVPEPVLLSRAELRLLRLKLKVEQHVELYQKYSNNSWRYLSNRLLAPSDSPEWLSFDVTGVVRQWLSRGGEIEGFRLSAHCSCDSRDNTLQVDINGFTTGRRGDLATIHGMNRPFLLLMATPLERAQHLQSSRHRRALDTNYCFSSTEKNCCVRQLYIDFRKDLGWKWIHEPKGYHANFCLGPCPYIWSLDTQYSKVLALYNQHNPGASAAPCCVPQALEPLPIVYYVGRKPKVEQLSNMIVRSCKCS
UniProt Q96RS0: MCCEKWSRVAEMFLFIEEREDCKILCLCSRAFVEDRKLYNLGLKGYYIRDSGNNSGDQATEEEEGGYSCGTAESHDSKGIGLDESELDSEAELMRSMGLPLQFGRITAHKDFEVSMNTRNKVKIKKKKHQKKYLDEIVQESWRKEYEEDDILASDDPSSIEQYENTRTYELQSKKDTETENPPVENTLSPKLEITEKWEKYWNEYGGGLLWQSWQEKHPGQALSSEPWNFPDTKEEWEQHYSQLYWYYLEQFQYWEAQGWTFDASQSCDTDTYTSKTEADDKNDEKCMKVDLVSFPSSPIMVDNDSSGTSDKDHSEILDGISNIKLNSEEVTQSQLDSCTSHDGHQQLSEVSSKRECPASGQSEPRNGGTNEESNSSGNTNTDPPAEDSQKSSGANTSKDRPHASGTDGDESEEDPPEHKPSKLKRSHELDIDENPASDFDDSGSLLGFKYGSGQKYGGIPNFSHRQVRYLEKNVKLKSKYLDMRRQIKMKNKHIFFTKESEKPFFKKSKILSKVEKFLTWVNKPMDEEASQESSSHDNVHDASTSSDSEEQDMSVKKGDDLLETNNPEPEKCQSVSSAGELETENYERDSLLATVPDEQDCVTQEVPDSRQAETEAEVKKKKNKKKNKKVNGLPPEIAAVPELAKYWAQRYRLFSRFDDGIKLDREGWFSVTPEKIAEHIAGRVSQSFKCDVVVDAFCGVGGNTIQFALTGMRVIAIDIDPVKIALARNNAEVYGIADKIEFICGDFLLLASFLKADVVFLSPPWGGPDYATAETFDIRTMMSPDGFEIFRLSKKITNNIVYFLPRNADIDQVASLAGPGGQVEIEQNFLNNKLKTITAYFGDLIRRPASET
UniProt Q9Y5L4: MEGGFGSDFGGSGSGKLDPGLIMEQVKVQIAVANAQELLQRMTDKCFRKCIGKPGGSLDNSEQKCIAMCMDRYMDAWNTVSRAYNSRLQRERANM
UniProt Q5VWP2: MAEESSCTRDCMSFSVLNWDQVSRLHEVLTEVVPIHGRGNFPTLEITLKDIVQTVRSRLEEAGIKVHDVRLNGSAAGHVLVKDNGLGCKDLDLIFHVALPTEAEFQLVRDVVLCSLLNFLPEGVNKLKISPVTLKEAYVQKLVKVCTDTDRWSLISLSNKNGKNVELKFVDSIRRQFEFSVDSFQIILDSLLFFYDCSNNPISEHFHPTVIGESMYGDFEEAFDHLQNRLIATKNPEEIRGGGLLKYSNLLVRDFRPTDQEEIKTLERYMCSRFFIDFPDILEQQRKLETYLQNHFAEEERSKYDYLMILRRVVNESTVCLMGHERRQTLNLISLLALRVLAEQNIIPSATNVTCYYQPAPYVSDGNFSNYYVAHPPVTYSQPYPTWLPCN

compound: NC(=O)Nc1cc(-c2cccc(F)c2)sc1C(=O)N[C@H]1CCCNC1; assay: log2 fold change, soluble protein after heating vs DMSO (PISA); higher = thermal stabilisation; K562 cells, 10 uM, 30 min; active = over 0.2 and 3.5 SD of the protein, either way, in both replicates (recomputed)
Method in brief: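 K562 cells at 2×10^6 cells/mL were exposed to 10 μM compound for 30 min, then aliquots were heated for 3 min across 48°C-58°C, pooled, and extracted in PBS containing 0.5% NP-40 at 4°C. The supernatant after 21,000xg for 90 min was taken as soluble protein and measured by TMTpro 16plex LC-MS/MS with channel sums equalised. Thermal stability is reported relative to control samples, with values from duplicates. Fold changes are given on a log2 scale.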

log2 fold change, inactive:
TBC1D14 (UniProt Q9P2M4) -0.545
TLCD3A (UniProt Q8TBR7) 0.008
TGOLN2 isoform 7 (UniProt O43493) 0.005
TIMMDC1 (UniProt Q9NPL8) 0.03
THOC2 (UniProt Q8NI27) 0.039
TFPI (UniProt P10646) -0.021
THYN1 (UniProt Q9P016) 0
THRAP3 (UniProt Q9Y2W1) -0.02
TK1 (UniProt K7ERV3) -0.127
TFDP2 (UniProt Q14188) -0.038
TCOF1 isoform 6 (UniProt Q13428) 0.281
THBS1 (UniProt P07996) 0.003
TIMM22 (UniProt Q9Y584) 0.026
TDRD15 (UniProt B5MCY1) -0.552
TIMM10B (UniProt Q9Y5J6) 0.021
TBK1 (UniProt Q9UHD2) 0.196
TKT, A0A0B4J1R6 -0.211
TGFB1 (UniProt P01137) -0.001
THUMPD1 (UniProt Q9NXG2) 0.026
TGS1 (UniProt Q96RS0) 0.086
TIMM13 (UniProt Q9Y5L4) 0.114
TENT5C (UniProt Q5VWP2) -0.095
TCF12 isoform 3 (UniProt Q99081) -0.032

For reference, some entries already given:
log2 fold change, inactive:
TIMMDC1 (UniProt Q9NPL8) 0.03
THOC2 (UniProt Q8NI27) 0.039
TFPI (UniProt P10646) -0.021
THYN1 (UniProt Q9P016) 0
THRAP3 (UniProt Q9Y2W1) -0.02
TK1 (UniProt K7ERV3) -0.127
TFDP2 (UniProt Q14188) -0.038
